The values that follow are results of earlier work, collected in patent publication US5668182A, “Method of calming or sedating an animal with a hydroxy benzaldehyde compound” (priority 1996, dated 1997).

The data set has as its system rats. Particulars: cited from earlier work.

Regarding `CN1C(=O)CN=C(c2ccccc2)c2cc(Cl)ccc21` [diazepam, reference compound], the “oral LD50” value is recorded as 1240 mg/kg.
